Results taken from publication PMC11864691.

By UniProt entry, the sequences of proteins in these tests, tags left out. Where a name states a change or a piece, a line headed by the entry shows the natural chain unless it says otherwise.
UniProt P11142: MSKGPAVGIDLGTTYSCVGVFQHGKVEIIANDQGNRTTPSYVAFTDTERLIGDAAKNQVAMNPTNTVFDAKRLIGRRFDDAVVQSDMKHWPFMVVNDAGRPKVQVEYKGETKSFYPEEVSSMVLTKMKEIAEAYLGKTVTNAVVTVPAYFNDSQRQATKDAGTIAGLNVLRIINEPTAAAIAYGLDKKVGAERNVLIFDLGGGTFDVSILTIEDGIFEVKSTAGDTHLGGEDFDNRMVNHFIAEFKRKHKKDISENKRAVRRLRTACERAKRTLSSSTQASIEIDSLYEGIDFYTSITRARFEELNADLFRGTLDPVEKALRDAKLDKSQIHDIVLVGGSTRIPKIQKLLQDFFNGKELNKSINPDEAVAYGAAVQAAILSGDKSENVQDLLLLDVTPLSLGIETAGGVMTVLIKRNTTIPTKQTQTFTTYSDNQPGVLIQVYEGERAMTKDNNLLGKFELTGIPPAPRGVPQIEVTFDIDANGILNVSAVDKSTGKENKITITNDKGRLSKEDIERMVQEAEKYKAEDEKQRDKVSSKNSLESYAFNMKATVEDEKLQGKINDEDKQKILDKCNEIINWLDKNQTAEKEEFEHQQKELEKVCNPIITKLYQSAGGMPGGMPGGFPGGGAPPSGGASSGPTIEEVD
UniProt O75907: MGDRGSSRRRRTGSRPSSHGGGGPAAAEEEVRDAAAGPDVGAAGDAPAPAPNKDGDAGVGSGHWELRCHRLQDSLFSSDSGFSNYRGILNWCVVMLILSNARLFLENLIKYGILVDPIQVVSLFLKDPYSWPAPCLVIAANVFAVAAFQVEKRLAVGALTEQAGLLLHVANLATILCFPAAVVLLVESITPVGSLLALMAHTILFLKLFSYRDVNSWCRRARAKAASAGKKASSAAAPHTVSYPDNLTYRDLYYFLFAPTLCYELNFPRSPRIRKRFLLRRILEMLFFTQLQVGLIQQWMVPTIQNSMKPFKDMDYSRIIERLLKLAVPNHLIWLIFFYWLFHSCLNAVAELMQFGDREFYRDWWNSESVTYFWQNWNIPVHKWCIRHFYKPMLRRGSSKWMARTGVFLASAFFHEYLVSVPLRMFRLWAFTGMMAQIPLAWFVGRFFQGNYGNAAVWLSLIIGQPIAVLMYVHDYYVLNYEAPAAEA

Molecular target: heat shock cognate 70 kDa protein (HSC70) (human (endogenous in Huh-7.5)) (UniProt P11142)
Test: co-IP; Huh-7.5 cells transfected with pCAG-FLAG-DGAT1 or pCAG-FLAG-DGAT1 Q149A, harvested 48 h after transfection; lysate precipitated with anti-HSC70 mouse mAb; endogenous HSC70 is the bait; blot with anti-FLAG mAb

binding: no binding
Substance: FLAG-DGAT1 Q149A (from UniProt O75907)

These are yes or no findings as the source states them, for the method shown. In cells and extracts the contact can be indirect.
